Measured values as given in PMC12370185.
Some of the results follow.

Each sequence was assayed on c-MYC + MAX + histone octamer (assay: EMSA with sequencing). Settings: 10 mM Tris-Cl pH 7.5, 50 mM NaCl, 1 mM DTT, 0.25 mg/ml BSA, 2 mM MgCl2, 0.025% Nonidet P-40, 5% glycerol; 28 nM nucleosome library; 10 min on ice then 30 min …; high values mean tight binding; double strand, one strand shown.

Row | Sequence | binding signal (log2 relative supershift)
1 | GATGGACCCTATACGCGGCAGCATGATTCTCGCGATCCGCAGGGCCTCTCGGCTGCTGATCTTCAGCTGGTTGCTGAGAGTTGCAGCATTGCTGAGTCTTAGCAATGGATACTTCCCGATTCCCCTCACAAAAATAGGTCAGTCTGTCTGGCTAGTTCTGTACTTGCAGACACAGGGCATGTGGGGTTCCGGATCCAGCGACTTTACCGGTGCCAGTCGGATAGTGTTCC | 0.68
2 | GATGGACCCTATACGCGGCATACATGGCACATACATTTGCCAAAACCAGTGAAATTTACAACACCAAGCATGAACCCTAATGTAAACGCATACTTTGAGTGATAATGATGTGTCTACGTTGGTTCATCAGCTGCAGCAAATGTACCACACTGGTGTGGACAGTGGGGAAGCCTGTGGGTGTAAGGGGAGGGAGTATATGGGAACTGTCTGTGCCAGTCGGATAGTGTTCC | 0.317
3 | GATGGACCCTATACGCGGCAGTAAATATTTCAGGCTCTGTGGGTTACGTATCGTTTCTGTTGCAGCAACTCAACTCTGCTCTTGGAGCACAGAAGCAGCCACAAATACGTAAACAAATGGGTGTGGCTGTACACCAGTAAAACTTTACAAAACAAGGAGTGGTCCACGGCCTCAGCGTGCCAGCCTCTGCTCTAAACCGTGACACCCAAATGCCAGTCGGATAGTGTTCC | 0.382
4 | GATGGACCCTATACGCGGCGAGGCACAGAGGCCTGAAGGGGACAGAGTGGGCAGGCCAGGTAGGCCGGGAAAGGTTTGAGGTGGGGACAATAGCCCTGCCCCTCCCCCACTCACGCCTTGAGCCCCTCCTTCTTCAGGATCTGCAAGCCGCAGTCCCACGTGTTCCGGTATTTGTGCGCCTCCAGGCCCTATGGGGGACATCAGCAGGCATGCCAGTCGGATAGTGTTCC | 0.605
5 | GATGGACCCTATACGCGGCGACCTGCTCTGCAAGGCATCAGATGCCTTCCAGTCAGTAAGAGACAAGAGATACACAGGGTGCTCCCATTCCCACAGCAAGCACCACCCTGCACCACTAGTATTAGCACCACCCACATGGAAGGGTGCCAGACACATACCTACTAGCTGCCTGCCACGCATGGAAAATTCTTTAGGCAATACCCTCCGCACTGCCAGTCGGATAGTGTTCC | 0.234
6 | GATGGACCCTATACGCGGCAAACCCCGCCACTTCCCCTTCCTCGGTAAGAGGAACTTGGCGTTGCCCTGACAGGAAAGTCTTGGTGGGGCTTCTCGGAAGCCGCCACCGCTGCACTGCTGAGCAAAACCACAGGTCAGGGGCCAGGCCGGGGGCCAGGCTAGTGAGGACTGGCCATTGATAAAGTCACAGGCTCCATCTAAGCCCATCGGTGCCAGTCGGATAGTGTTCC | 0.0294
7 | GATGGACCCTATACGCGGCCCGGGCAGAACTACTGAGCGAGGAGCCTATCAGTCCTGGTTCCCAAGCTCCCTGCCCCAGCCTGCCCCTGGCCTCCCAGTGCCTTGGCCTGCCTCACATGCCTGGGCTTGGCCCCAGGTTATCTTCAGAGCCATCCCATCCTGCCTCCCTGACTGACCATGCCACTTCCCGCTCAAAACCTGTCCATGGCTTGCCAGTCGGATAGTGTTCC | 0.416
8 | GATGGACCCTATACGCGGCGAAAGCTAGCAGGAGGCGTTGCTCAAGTTCAAAACAATCTGTGCGTGTCCAGGCACGCGCGGAGCCAGACCCCAGCCGCGCGGCTCAGACCTCGCGAGAGCCATCACCTGAGAAATCCACAGCCTTTTCTCATCAGGCTTAGACTGTTTTTCCCATACCTCCAAGAAGGAAGACCCACATGTTAAAACTATTGCCAGTCGGATAGTGTTCC | 0.606
9 | GATGGACCCTATACGCGGCTACACACACGCGCACACCCATACACACGCACCATCTAACACAGTTTGTTCTGCCTAAACTTGGAGGCCCCAGCCATGGCTGGACGAATGCAAAAGAGGAGCAGTGGTGCGAATGAGGCAGTGACCATGCCAGGCCAGAGAACTGGGGCTGCCCACTGCTACTCCTCACTGAGTTGCCCTTGGCTTGTGCTATGCCAGTCGGATAGTGTTCC | 0.881
10 | GATGGACCCTATACGCGGCCAGGGATGAGTAATTCCACTTGACAGACAGGGAAACCTGAGGACGGTGGTTCTCAGACTTTAGGGGCGTTGCTTCCAGTAAGCAGATGTCTGAGCCACGTGGCAAGGAGGATGAGTCAGCAGGTTTGGGGTGGGGCTGGGTATCTGATGTTTACTCAGACCTCCTCATCCTCATCCTGCAGGTGGGCAGATTGCCAGTCGGATAGTGTTCC | 0.131
11 | GATGGACCCTATACGCGGCTCACCCACCCACACATACTCACACATGCCTGCACACGCATACACTCATGCATGCACACACGGTCATCCACCCACATATACACACACATGCACGTTCACATGCACACTCGCATGCACACATGCAGTCACCCACCCACACGTGCACACTCACACACGCATACATAGACATACACACACACGAAGTCACCCACCTGCCAGTCGGATAGTGTTCC | 1.61

A few values from the list:
binding signal (log2 relative supershift), GATGGACCCTATACGCGGCATACATGGCACATACATTTGCCAAAACCAGTGAAATTTACAACACCAAGCATGAACCCTAATGTAAACGCATACTTTGAGTGATAATGATGTGTCTACGTTGGTTCATCAGCTGCAGCAAATGTACCACACTGGTGTGGACAGTGGGGAAGCCTGTGGGTGTAAGGGGAGGGAGTATATGGGAACTGTCTGTGCCAGTCGGATAGTGTTCC reads 0.317
binding signal (log2 relative supershift), GATGGACCCTATACGCGGCAGTAAATATTTCAGGCTCTGTGGGTTACGTATCGTTTCTGTTGCAGCAACTCAACTCTGCTCTTGGAGCACAGAAGCAGCCACAAATACGTAAACAAATGGGTGTGGCTGTACACCAGTAAAACTTTACAAAACAAGGAGTGGTCCACGGCCTCAGCGTGCCAGCCTCTGCTCTAAACCGTGACACCCAAATGCCAGTCGGATAGTGTTCC reads 0.382
